Laboratory results as given in patent US9708255B2, “(bis)urea and (bis)thiourea compounds as epigenic modulators of lysine-specific demethylase 1 and methods of treating disorders” (priority 2009, dated 2017).
Some results were stated once for a whole list of compounds, not compound by compound.

Tested on: global H3K4me2
Assay: Global H3K4me2 in HCT116 human colon tumor cells
Type: cell-based
Conditions: HCT116 human colon tumor cells (data not shown)

| Structure (SMILES) | increase in global H3K4me2 [fold] |
| --- | --- |
| S=C(NCCCNCCCCNCCCNC(=S)NCC(c1ccccc1)c1ccccc1)NCC(c1ccccc1)c1ccccc1 [Compound 26, 1,12-bis-{3-[1-(2,2-diphenylethyl)thioureado]}-4,9-diazadodecane] | ≥ 2 |
| S=C(NCCCNCCCNCCCNC(=S)NCC(c1ccccc1)c1ccccc1)NCC(c1ccccc1)c1ccccc1 [Compound 27, 1,11-bis-{3-[1-(2,2-diphenylethyl)thioureado]}-4,8-diazaundecane] | ≥ 2 |

Same assay, conditions: HCT116 human colon tumor cells (data not shown); listed as compound 25

| Structure (SMILES) | increase in global H3K4me2 [fold] |
| --- | --- |
| S=C(NCCCNCCCCCCCNCCCNC(=S)NCC(c1ccccc1)c1ccccc1)NCC(c1ccccc1)c1ccccc1 [Compound 25, 1,15-bis-{3-[1-(2,2-diphenylethyl)thioureado]}-4,12-diazapentadecane] | ≥ 2 |

Biological target: recombinant human LSD1 (Homo sapiens, UniProt O60341)
Assay: LSD1 demethylase assay, luminol-dependent chemiluminescence (H2O2 production)
Conditions: 10 mM concentration (so in the source)

| Structure (SMILES) | reduction of LSD1 activity [%] |
| --- | --- |
| O=C(NCCCNCCCCNCCCNC(=O)NCc1ccccc1)NCc1ccccc1 [Compound 4, 1,12-bis-{3-[1-(benzyl)ureado]}-4,9-diazadodecane] | ≥ 50 |
| CCNC(=O)NCCCNCCCCNCCCNC(=O)NCC [Compound 5, 1,12-bis-{3-[1-(ethyl)ureado]}-4,9-diazadodecane] | ≥ 50 |
| CCNC(=S)NCCCNCCCCNCCCNC(=S)NCC [Compound 6, 1,12-bis-{3-[1-(ethyl)thioureado]}-4,9-diazadodecane] | ≥ 50 |
| S=C(NCCCNCCCCCCCNCCCNC(=S)NCc1ccccc1)NCc1ccccc1 [Compound 10, 1,15-bis-{3-[1-(benzyl)thioureado]}-4,12-diazapentadecane] | ≥ 50 |
| CCNC(=S)NCCCNCCCNCCCNC(=S)NCC [Compound 18, 1,11-bis-{3-[1-(ethyl)thioureado]}-4,8-diazaundecane] | ≥ 50 |
| S=C(NCCCNCCCCNCCCNC(=S)NC(c1ccccc1)c1ccccc1)NC(c1ccccc1)c1ccccc1 [Compound 29, 1,12-bis-{3-[1-(1,1-diphenylmethyl)thioureado]}-4,9-diazadodecane] | ≥ 50 |
| S=C(NCCCNCCCCCCCNCCCNC(=S)NC(c1ccccc1)c1ccccc1)NC(c1ccccc1)c1ccccc1 [Compound 30, 1,15-bis-{3-[1-(1,1-diphenylmethyl)thioureado]}-4,12-diazapentadecane] | ≥ 50 |
